Laboratory results from patent US20110223630A1, “METHOD FOR SCREENING FOR COMPOUNDS THAT INHIBIT NEURODEGENERATION” (priority 2008, published 2011).
For at least one compound, name, drawing or mass did not settle the structure.

System: sensory neurons
Assay: NGF deprivation assay in Campenot Chambers, local sensory axon degeneration (TUJ1 stain)
Assay type: cell-based, mouse
Settings: neurons cultured 5 days, then 24 hours; SP 600125 1 uM, Z-IETD-FMK 10 uM, Z-DEVD-FMK 10 uM
Description: Materials and methods used to generate the data shown in this figure are as follows. To examine whether ligand is required for DR6 function in sensory axonal degeneration, a compartmented culture analysis of sensory axon growth and degeneration was carried out as follows. A Campenot nerve cell chamber system was used to isolate neuronal processes (axons) from the cell bodies in different compartments (separate fluid environments), analogous to neuronal cell bodies in one location of the nervous system projecting their axons to a distal target in another location. The assay was carried out as originally described by Campenot (Campenot et al., J. Neurosci. 11(4): 1126-39 (1991)) with the following modifications. […]
To trigger local axonal degeneration, NGF-containing medium from axonal compartments was substituted with neurobasal medium with an NGF blocking antibody (anti-NGF, Genentech, Inc., 20 ug/ml). Zero hours, 6 hours, or 24 to 48 hours following NGF deprivation, sensory neurons were fixed in 4% PFA for 30 minutes at room temperature and processed for immunofluorescence staining with axonal marker TUJ-1 (Covance, 1:500 dilution) to visualize degenerating axons by fluorescence microscopy (FIG. 11B) (as above described in Example 7). […]

Oc1c2ccccc2c2c3c(cccc13)N=N2 [SP 600125]
sensory axonal degeneration after anti-NGF: delayed
